Assay [1] deals with CXCR4 (pEnCMV-3× Flag vector) (UniProt P61073). The assay can be described thus: co-IP; NGAL and CXCR4 co-expressed in HEK293T cells; 48 h after transfection lysates immunoprecipitated with protein A/G beads conjugated with CXCR4 or NGAL antibody, immunoblot with the other antibody; IgG as negative control. In general terms: In western blotting, separated proteins are transferred to a membrane and probed.

The chains behind the UniProt entries cited, without tags or fusion partners. Residues count along the entry.
UniProt P61073: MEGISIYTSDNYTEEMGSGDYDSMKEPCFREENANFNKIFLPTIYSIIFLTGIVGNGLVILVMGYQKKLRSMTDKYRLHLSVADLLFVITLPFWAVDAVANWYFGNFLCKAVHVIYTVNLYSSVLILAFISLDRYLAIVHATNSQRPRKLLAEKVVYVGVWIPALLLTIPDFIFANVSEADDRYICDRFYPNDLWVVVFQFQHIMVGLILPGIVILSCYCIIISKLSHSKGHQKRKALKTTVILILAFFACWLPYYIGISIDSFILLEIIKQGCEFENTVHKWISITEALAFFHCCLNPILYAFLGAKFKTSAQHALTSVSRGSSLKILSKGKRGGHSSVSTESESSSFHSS
UniProt P80188, residues 21-198: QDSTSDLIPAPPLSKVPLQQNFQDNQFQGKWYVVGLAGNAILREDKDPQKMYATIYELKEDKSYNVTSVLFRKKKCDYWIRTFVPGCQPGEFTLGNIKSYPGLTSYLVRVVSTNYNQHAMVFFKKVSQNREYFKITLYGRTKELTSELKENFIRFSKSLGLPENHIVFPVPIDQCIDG

The target is the same in assay [2]. As to the kind of experiment: co-IP; HEK293T cells expressing only CXCR4 co-cultured with recombinant human NGAL (rhNGAL); lysates immunoprecipitated with protein A/G beads (CXCR4 or NGAL antibody), immunoblot with the other antibody; IgG as negative control; only the binder purified.

These are yes or no findings as the source states them, for the method shown. In cells and extracts the contact can be indirect. Some binding calls cover weakened binding; strength is not graded here.

For “NGAL with a strep tag (pEZT vector) (from UniProt P80188 21-198)”, the binding result in assay [1] is reported as “binds”.
In the case of “recombinant human NGAL (from UniProt P80188 21-198)”, the binding entry in assay [2] is “binds”.

Source of the values: paper PMC10582023.
